Results: patent US20200297795A1
No constants are given. Whether binding was seen depends on the method and setting.

Target: mouse CD40 with the CD154-interacting domain knocked out (B6.CD40KO) (mouse)
Assay: flow cytometry, FITC-conjugated KGYY6 on PBMC

binding: no binding
Binder: AKKGYY (FITC-conjugated (site of the label not stated)) [FITC-conjugated KGYY6 peptide]
